For at least one compound, name, drawing or mass did not settle the structure.
Biological target: T1, Human AMPK α2β2γ1 (Homo sapiens, UniProt O43741+P54646)
T1 construct: The full length cDNAs of human AMPK β2 (NM_005399.3) and human AMPK α2 (NM_006252.3); The full length cDNAs of human AMPK β2 (NM_005399.3); the full length cDNA of human AMPK γ1 (NM_002733.3) had been inserted into pET28b(+); 6×His (N); made in house; host or cells: Escherichia coli BL21 CodonPlus (DE3)-RIL
Experiment: Test Example 2: activation of phosphorylated human AMPK α2β2γ1 (mobility-shift kinase assay, FL-Peptide 7)
Format: biochemical
Details: compound concentration showing 150% relative to the control (100%); human AMPK α2β2γ1 phosphorylated with CaMKK2
Protocol: The full length cDNAs of human AMPK β2 (NM_005399.3) and human AMPK α2 (NM_006252.3) were inserted into the MCS1 and MCS2 of the pETDuet-1 vector to prepare a human AMPK β2 and human AMPK α2 (6×His tag at the 5′ terminus) expressing plasmid. The plasmid was cotransfected with an expression plasmid, in which the full length cDNA of human AMPK γ1 (NM_002733.3) had been inserted into pET28b(+), into BL21 CodonPlus (DE3)-RIL to obtain an expression strain. The expression strain was cultured in TB medium, followed by induction with 0.5 mM IPTG, and cultured at 25° C. for 3 hours and then harvested. After ultrasonication, supernatant was collected and applied to Histrap FF column (GE) and RESOUECE Q column (GE) to prepare 12.5 mg of purified sample containing three types of subunit from 1.8 L of broth.
An expression vector, in which the full length cDNA of human CAMKK β (NM_172226.1) had been inserted into pGEX-6P-3, was transfected into BL21 Star (DE3). […]
To detect phosphorylated fluorescent substrates, the reaction mixture was applied to a measuring device, LabChip EZ Reader II manufactured by Caliper Life Science, Inc., for detecting fluorescence by using differences in mobility due to differences in charge. […]
A conversion rate was calculated from the peak heights of the obtained substrate and product. […]

Sequences of proteins named here, by UniProt entry; tags and fusion partners are left off. A change or cut given only in a name is not applied to a line headed by its entry.
UniProt O43741: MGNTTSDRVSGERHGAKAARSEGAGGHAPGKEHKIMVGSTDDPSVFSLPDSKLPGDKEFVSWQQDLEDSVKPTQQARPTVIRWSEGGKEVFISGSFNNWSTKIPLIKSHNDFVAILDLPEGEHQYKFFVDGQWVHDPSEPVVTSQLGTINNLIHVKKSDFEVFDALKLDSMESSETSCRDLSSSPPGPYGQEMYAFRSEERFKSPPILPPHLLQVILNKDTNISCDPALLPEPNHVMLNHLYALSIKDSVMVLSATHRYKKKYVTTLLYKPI
UniProt P54646: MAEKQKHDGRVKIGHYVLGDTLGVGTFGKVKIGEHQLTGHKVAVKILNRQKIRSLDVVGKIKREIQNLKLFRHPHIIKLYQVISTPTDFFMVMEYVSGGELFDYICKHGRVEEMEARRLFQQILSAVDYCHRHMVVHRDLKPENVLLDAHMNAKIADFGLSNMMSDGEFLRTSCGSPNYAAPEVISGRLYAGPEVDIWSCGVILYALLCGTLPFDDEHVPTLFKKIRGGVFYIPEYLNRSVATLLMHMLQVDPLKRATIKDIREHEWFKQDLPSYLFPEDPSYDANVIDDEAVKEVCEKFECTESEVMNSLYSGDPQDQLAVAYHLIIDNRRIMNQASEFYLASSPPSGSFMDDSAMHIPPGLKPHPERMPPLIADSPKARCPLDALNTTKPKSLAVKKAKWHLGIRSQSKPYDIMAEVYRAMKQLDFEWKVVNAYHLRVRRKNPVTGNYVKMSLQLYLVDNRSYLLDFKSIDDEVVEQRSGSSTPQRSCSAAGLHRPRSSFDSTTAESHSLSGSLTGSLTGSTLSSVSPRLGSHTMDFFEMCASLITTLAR

Structure (SMILES)	EC150
COC(=O)NC1CC=C(c2ccc(-c3nc4cc(O[C@@H]5CO[C@H](CO)C5)[nH]c4cc3F)cc2)CC1 (some centres unmarked) [Compound I-2-01]	14 nM
COCCOc1ccc(-c2ccc(-c3nc4cc(O[C@@H]5CO[C@H](CO)C5)[nH]c4cc3F)cc2)cc1 [Compound I-2-02]	2.9 nM
